Several values for one entry are separate records, joined by “and”; a condition that tells them apart may be missing. Equal values may be shown once. This is one part of the list. Repeats in this data set agree poorly, so a single value says little.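 HEK293T cells were given each compound shortly before transfection with a reporter in which red mCherry is followed by the SARS-CoV-2 frameshift element and then GFP in the −1 frame, so GFP appears only after frameshifting.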
test system: HEK293T; assay: percent viability (nuclei count) relative to control; higher = more viable cells; conditions: 10 µM; 24 h

| SMILES | percent viability |
| --- | --- |
| COCCCOc1cc(C[C@@H](C[C@H](N)[C@@H](O)C[C@H](C(=O)NCC(C)(C)C(N)=O)C(C)C)C(C)C)ccc1OC [aliskiren] | 205% |
| O=C(O[C@H]1CN2CCC1CC2)N1CCc2ccccc2[C@@H]1c1ccccc1 [Vesicare] | 350% |
| NS(=O)(=O)c1cc2c(cc1Cl)CN(C1CCCCC1)C2=O [clorexolone] | 56% |
| COC1=C(OC)C(=O)C(CCCCCCCCCCO)=C(C)C1=O [idebenone] | 162% and 212% |
| CCN1CC(CCN2CCOCC2)C(c2ccccc2)(c2ccccc2)C1=O (stereo not given) | 138% |
| CN1CCN(C(c2ccccc2)c2ccccc2)CC1 [cyclizine] | 135% |
| Oc1c(I)cc(I)c2cccnc12 | 144% |
| O=c1[nH]cnc2c([C@@H]3N[C@H](CO)[C@@H](O)[C@H]3O)c[nH]c12 [forodesine] | 199% |
| CO/N=C(\C(=O)N[C@@H]1C(=O)N2C(C(=O)O)=C(COC(N)=O)CS[C@H]12)c1ccco1 [Zinacef] | 180% |
| Cc1c(-c2ccc(O)cc2)n(Cc2ccc(OCCN3CCCCCC3)cc2)c2ccc(O)cc12 [bazedoxifene] | 245% |
| O=C(O)CCCc1ccccc1 [Sodium Phenylbutyrate] | 253% |
| COc1ccc(-c2nc3cc(C4=NNC(=O)CC4C)ccc3[nH]2)cc1 (stereo not given) [pimobendan] | 77.7% |
| CC1CCc2cc(F)cc3c(=O)c(C(=O)O)cn1c23 (stereo not given) [flumequine] | 132% |
| CC1(C)[C@H](C(=O)O)N2C(=O)C[C@H]2S1(=O)=O [Sulbactam] | 211% |
| CNNCc1ccc(C(=O)NC(C)C)cc1 [procarbazine] | 170% and 266% |

Reference: the supplement of paper PMC8256030
